Experimental data published in publication PMC2824762, “Analysis of the role of PCNA-DNA contacts during clamp loading” (BMC Structural Biology, 2010).
These are yes or no findings as the source states them, for the method shown. Some entries that bind do so weakly or less than the wild type.

By UniProt entry, the sequences of proteins in these tests, tags left out.
UniProt P15873: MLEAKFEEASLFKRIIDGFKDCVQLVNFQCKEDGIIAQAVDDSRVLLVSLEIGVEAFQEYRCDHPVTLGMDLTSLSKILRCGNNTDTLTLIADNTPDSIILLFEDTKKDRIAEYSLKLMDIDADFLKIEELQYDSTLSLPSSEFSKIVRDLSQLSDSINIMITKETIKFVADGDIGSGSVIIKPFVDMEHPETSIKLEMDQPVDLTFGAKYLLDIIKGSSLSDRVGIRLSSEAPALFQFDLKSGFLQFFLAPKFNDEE

Target: S. cerevisiae Proliferating Cell Nuclear Antigen (PCNA), wild type (S. cerevisiae) (UniProt P15873)
Experiment: crystal structure; wild-type PCNA crystallised with Cy5-labelled primer-template DNA; cubic space group; PCNA placed by molecular replacement; no DNA density; not deposited; both purified

- binding: binds
Substance: S. cerevisiae Proliferating Cell Nuclear Antigen (PCNA), wild type (from UniProt P15873 1-258)
